From patent US20250109127A1, “METHODS OF USE OF PHENOXYPROPYLAMINE COMPOUNDS TO TREAT DEPRESSION” (Minerva Neurosciences, Inc., priority 2013, published 2025)
Values joined by “and” are separate entries in the source; they are usually repeats but may differ in a detail not shown here. Equal values may be shown once. Further values from the same series stand in other lists.

Assays:
Format in all cases: in vivo
Settings in all cases: Citalopram 10 mg/kg I.P.
[1] = test system: DOPAC release in the rat prefrontal cortex; test: Microdialysis: DOPAC release in prefrontal cortex after I.P. administration
Procedure: (§1) The aim of the study was to evaluate, using microdialysis, the effects of an intraperitoneal (I.P.) administration in rats of three different doses of SON-117 on dopamine and its metabolites, serotonin and its metabolite (5-HIAA), and norepinephrine levels in prefrontal cortex.
(§2) Thirty-two adult male Wistar rats were used for the whole study (4 groups of eight animals planned for the study, Table 1).
(§3) Surgery was performed on rats weighing about 300 g at the beginning of the experiments. Rats were anaesthetized with Ketamine (50 mg/kg) & Xylazine (15 mg/kg) by intramuscular administration. The animals were placed in a stereotaxic apparatus in the flat-skull position at a constant setting of −3.3 mm between ear bars and the incisor bar. The animals were treated with a local anesthesic (xylocaine 1%, Astra Zeneca) and an analgesic (Temgesic, from Schering Plough, 0.05 mg/kg, s.c.). A rostrocaudal midline incision was made with a lancet to expose the dorsal skull surface. The “stereotaxic zero” was defined by the Bregma in accordance with Paxinos and Watson's atlas (1986). A hole was drilled in the skull with a drill and the meninges were pierced with a sterile needle to implant a CMA12 guide cannula which later received the dialysis probe.
(§4) Coordinates used for implanting guide cannula in prefrontal cortex from Bregma were anteroposterior 3.7 mm, mediolateral 0.8 mm, and dorsoventral −2 mm (top of the probe was at −5 mm). The guide cannula was fixed to the skull with two stainless steel screws (1.88 mm outside diameter) anchored. An application of dental cement was added. A plastic collar allowed each animal to be tethered to a Swivel assembly of the CMA 120 awake animal system. Following surgery, rats were kept in individual cages and allowed to recover for a minimum of 3-5 days before the experimentation. The rats were handled and put in plastic bowl for 10 min at least every day to habituate the animals to their new environment for the dialysis. An I.P. administration with saline was also performed every day.
(§5) Dialysis probes (CMA12/3 mm, membrane, 20 kD cut-off, Carnegie Medicine, Stockholm, Sweden), were carefully washed before inserting into the guide cannula. The wash was performed with the artificial cerebrospinal fluid (aCSF) medium (NaCl 147 mM, KCl 2.7 mM, CaCl2 1.2 mM, MgCl2 0.85 mM) at room temperature. The dialysis system was then equilibrated at 20° C. at a perfusion rate of 1 μl/min with a Carnegie pump (CMA100). All catheters (FEP tubing, internal volume of 1.2 μl/10 cm, and tubing adaptors) used for microdialysis were treated in the same conditions.
(§6) The probes duly prepared were inserted into the guide cannula and the CMA120 Swivel assembly secured to the animal using a plastic collar. Flow through the dialysis probe with aCSF was maintained at a rate of 1 μl/min during the whole experimentation. The first four fractions (corresponding to 2 hours) were discarded to avoid the effects of parenchymal disturbance and to ensure that an approximate steady-state level was reached. Fractions were then collected over a period of 8.5 h during which time the animals remained quiet. The dialysates were automatically collected with an autosampler (microfraction collector CMA 140, Carnegie Medicin) and stored at −80° C. until analysis. […] Perfusion was then maintained for 7 hours with aCSF. The dialysates (30 μl) were collected into 300 μl vials, transferred into dry ice and then kept frozen (−80° C.) until analysis. Frozen samples were shipped to a partner for analysis. At the end of the microdialysis study, a PBS with colored ink was perfused through the probe in order to visualize the dialyzed area.
(§7) Catecholamine assay: Concentrations of dopamine, DOPAC, HVA, 5-HIAA, 5-HT, and norepinephrin were determined for each sample by HPLC coupled with electrochemical detection.

[2] = test system: dopamine release in the rat prefrontal cortex; test: Microdialysis: dopamine release in prefrontal cortex after I.P. administration
Procedure: as §1, §2, §3, §4, §5, §6, §7

[3] = test system: norepinephrin release in the rat prefrontal cortex; test: Microdialysis: norepinephrine release in prefrontal cortex after I.P. administration
Procedure: as §1, §2, §3, §4, §5, §6
(§8) Catecholamine assay: Concentrations of dopamine, DOPAC, HVA, 5-HIAA, 5-HT, and norepinephrin were determined for each sample by HPLC coupled with electrochemical detection. […]

[4] = test system: 5-HT release in the rat prefrontal cortex; test: Microdialysis: 5-HT release in prefrontal cortex after I.P. administration
Procedure: as §1, §2, §3, §4, §5, §6, §8

[5] = test system: 5-HIAA release in the rat prefrontal cortex; test: Microdialysis: 5-HIAA release in prefrontal cortex after I.P. administration
Procedure: as §1, §2, §3, §4, §5, §6, §7

[6] = test system: HVA release in the rat prefrontal cortex; test: Microdialysis: HVA release in prefrontal cortex after I.P. administration
Procedure: as §1, §2, §3, §4, §5, §6, §7

## CN(C)CCCC1(c2ccc(F)cc2)OCc2cc(C#N)ccc21 (centres unmarked) [Citalopram, citalopram, reference compound]
[1]; T0-T30 min
  DOPAC in dialysate, individual animals: 93.99 % of respective basal and 83.62 % of respective basal and 112.02 % of respective basal and 110.56 % of respective basal and 84.96 % of respective basal and 81.33 % of respective basal and 69.89 % of respective basal and 107.55 % of respective basal
[1]; T6 h 30-T7 h
  DOPAC in dialysate, individual animals: 99.41 % of respective basal and 102.68 % of respective basal and 143.96 % of respective basal
[1]; T-30 min-T0 (pre-dose)
  DOPAC in dialysate, individual animals: 99.79 % of respective basal and 95.64 % of respective basal and 108.55 % of respective basal and 108.69 % of respective basal and 99.61 % of respective basal and 84.52 % of respective basal and 67.92 % of respective basal and 108.60 % of respective basal
[1]; T-1 h 30-T-1 h (pre-dose)
  DOPAC in dialysate, individual animals: 102.94 % of respective basal and 92.54 % of respective basal and 99.21 % of respective basal and 111.33 % of respective basal and 155.92 % of respective basal and 77.39 % of respective basal
[1]; T-1 h-T-30 min (pre-dose)
  DOPAC in dialysate, individual animals: 97.26 % of respective basal and 111.85 % of respective basal and 91.46 % of respective basal and 91.31 % of respective basal and 101.18 % of respective basal and 104.15 % of respective basal and 76.13 % of respective basal and 114.03 % of respective basal
[2]; T0-T30 min
  DOPAMINE in dialysate, individual animals: 179.63 % of respective basal and 83.92 % of respective basal and 103.86 % of respective basal and 49.65 % of respective basal and 68.83 % of respective basal and 258.63 % of respective basal and 124.48 % of respective basal
[2]; T-30 min-T0 (pre-dose)
  DOPAMINE in dialysate, individual animals: 162.70 % of respective basal and 92.21 % of respective basal and 56.27 % of respective basal and 98.12 % of respective basal and 109.32 % of respective basal and 89.74 % of respective basal and 120.02 % of respective basal and 121.94 % of respective basal
[2]; T-1 h 30-T-1 h (pre-dose)
  DOPAMINE in dialysate, individual animals: 66.18 % of respective basal and 102.55 % of respective basal and 71.08 % of respective basal
[2]; T-1 h-T-30 min (pre-dose)
  DOPAMINE in dialysate, individual animals: 42.17 % of respective basal and 109.98 % of respective basal and 143.76 % of respective basal and 103.07 % of respective basal and 96.29 % of respective basal and 144.11 % of respective basal and 62.54 % of respective basal and 100.17 % of respective basal
[3]; T0-T30 min
  NOREPINEPHRIN in dialysate, individual animals: 74.79 % of respective basal and 96.79 % of respective basal and 91.31 % of respective basal and 76.07 % of respective basal and 83.3 % of respective basal and 80.39 % of respective basal and 120.29 % of respective basal and 37.71 % of respective basal
[3]; T6 h 30-T7 h
  NOREPINEPHRIN in dialysate, individual animals: 68.60 % of respective basal and 129.94 % of respective basal and 27.54 % of respective basal
[3]; T-30 min-T0 (pre-dose)
  NOREPINEPHRIN in dialysate, individual animals: 100.18 % of respective basal and 96.27 % of respective basal and 99.84 % of respective basal and 92.54 % of respective basal and 84.33 % of respective basal and 118.10 % of respective basal and 75.28 % of respective basal
[3]; T-1 h 30-T-1 h (pre-dose)
  NOREPINEPHRIN in dialysate, individual animals: 91.50 % of respective basal and 102.97 % of respective basal and 110.56 % of respective basal and 110.16 % of respective basal and 56.34 % of respective basal and 85.71 % of respective basal
[3]; T-1 h-T-30 min (pre-dose)
  NOREPINEPHRIN in dialysate, individual animals: 108.51 % of respective basal and 96.85 % of respective basal and 103.73 % of respective basal and 100.16 % of respective basal and 96.91 % of respective basal and 105.50 % of respective basal and 125.55 % of respective basal and 139.00 % of respective basal
[4]; T0-T30 min
  5-HT in dialysate, individual animals: 59.09 % of respective basal and 54.82 % of respective basal and 123.43 % of respective basal and 89.05 % of respective basal and 57.41 % of respective basal and 137.48 % of respective basal and 95.22 % of respective basal and 65.30 % of respective basal
[4]; T6 h 30-T7 h
  5-HT in dialysate, individual animals: 67.20 % of respective basal and 193.93 % of respective basal and 93.41 % of respective basal and 57.68 % of respective basal
[4]; T-30 min-T0 (pre-dose)
  5-HT in dialysate, individual animals: 109.92 % of respective basal and 84.25 % of respective basal and 83.73 % of respective basal and 103.39 % of respective basal and 69.44 % of respective basal and 91.49 % of respective basal and 90.29 % of respective basal and 68.25 % of respective basal
[4]; T-1 h 30-T-1 h (pre-dose)
  5-HT in dialysate, individual animals: 111.65 % of respective basal and 104.59 % of respective basal and 126.75 % of respective basal and 105.38 % of respective basal and 71.17 % of respective basal and 131.14 % of respective basal
[4]; T-1 h-T-30 min (pre-dose)
  5-HT in dialysate, individual animals: 79.05 % of respective basal and 111.13 % of respective basal and 116.00 % of respective basal and 96.78 % of respective basal and 103.66 % of respective basal and 99.99 % of respective basal and 137.97 % of respective basal and 102.12 % of respective basal
[5]; T0-T30 min
  5-HIAA in dialysate, individual animals: 113.55 % of respective basal and 90.94 % of respective basal and 128.69 % of respective basal and 122.21 % of respective basal and 102.91 % of respective basal and 100.32 % of respective basal and 96.43 % of respective basal and 123.47 % of respective basal
[5]; T6 h 30-T7 h
  5-HIAA in dialysate, individual animals: 63.13 % of respective basal and 77.37 % of respective basal and 75.78 % of respective basal
[5]; T-30 min-T0 (pre-dose)
  5-HIAA in dialysate, individual animals: 110.34 % of respective basal and 99.39 % of respective basal and 105.29 % of respective basal and 103.60 % of respective basal and 103.56 % of respective basal and 97.47 % of respective basal and 93.29 % of respective basal and 105.37 % of respective basal
[5]; T-1 h 30-T-1 h (pre-dose)
  5-HIAA in dialysate, individual animals: 90.36 % of respective basal and 98.60 % of respective basal and 99.47 % of respective basal and 95.83 % of respective basal and 117.59 % of respective basal and 82.96 % of respective basal
[5]; T-1 h-T-30 min (pre-dose)
  5-HIAA in dialysate, individual animals: 99.30 % of respective basal and 102.01 % of respective basal and 94.71 % of respective basal and 91.40 % of respective basal and 96.98 % of respective basal and 106.69 % of respective basal and 89.12 % of respective basal and 111.67 % of respective basal
[6]; T-1 h 30-T-1 h (pre-dose)
  HVA in dialysate, individual animals: 96.85 % of respective basal and 107.64 % of respective basal and 146.16 % of respective basal and 75.28 % of respective basal
[6]; T-1 h-T-30 min (pre-dose)
  HVA in dialysate, individual animals: 97.80 % of respective basal and 96.30 % of respective basal and 98.15 % of respective basal and 89.04 % of respective basal and 96.35 % of respective basal and 102.63 % of respective basal and 82.52 % of respective basal and 116.32 % of respective basal
